Experimental data: the supplement of paper PMC10849652
Some of the results follow.

Sequences of proteins named here, by UniProt entry; tags and fusion partners are left off. A change or cut given only in a name is not applied to a line headed by its entry.
UniProt Q9NQ11: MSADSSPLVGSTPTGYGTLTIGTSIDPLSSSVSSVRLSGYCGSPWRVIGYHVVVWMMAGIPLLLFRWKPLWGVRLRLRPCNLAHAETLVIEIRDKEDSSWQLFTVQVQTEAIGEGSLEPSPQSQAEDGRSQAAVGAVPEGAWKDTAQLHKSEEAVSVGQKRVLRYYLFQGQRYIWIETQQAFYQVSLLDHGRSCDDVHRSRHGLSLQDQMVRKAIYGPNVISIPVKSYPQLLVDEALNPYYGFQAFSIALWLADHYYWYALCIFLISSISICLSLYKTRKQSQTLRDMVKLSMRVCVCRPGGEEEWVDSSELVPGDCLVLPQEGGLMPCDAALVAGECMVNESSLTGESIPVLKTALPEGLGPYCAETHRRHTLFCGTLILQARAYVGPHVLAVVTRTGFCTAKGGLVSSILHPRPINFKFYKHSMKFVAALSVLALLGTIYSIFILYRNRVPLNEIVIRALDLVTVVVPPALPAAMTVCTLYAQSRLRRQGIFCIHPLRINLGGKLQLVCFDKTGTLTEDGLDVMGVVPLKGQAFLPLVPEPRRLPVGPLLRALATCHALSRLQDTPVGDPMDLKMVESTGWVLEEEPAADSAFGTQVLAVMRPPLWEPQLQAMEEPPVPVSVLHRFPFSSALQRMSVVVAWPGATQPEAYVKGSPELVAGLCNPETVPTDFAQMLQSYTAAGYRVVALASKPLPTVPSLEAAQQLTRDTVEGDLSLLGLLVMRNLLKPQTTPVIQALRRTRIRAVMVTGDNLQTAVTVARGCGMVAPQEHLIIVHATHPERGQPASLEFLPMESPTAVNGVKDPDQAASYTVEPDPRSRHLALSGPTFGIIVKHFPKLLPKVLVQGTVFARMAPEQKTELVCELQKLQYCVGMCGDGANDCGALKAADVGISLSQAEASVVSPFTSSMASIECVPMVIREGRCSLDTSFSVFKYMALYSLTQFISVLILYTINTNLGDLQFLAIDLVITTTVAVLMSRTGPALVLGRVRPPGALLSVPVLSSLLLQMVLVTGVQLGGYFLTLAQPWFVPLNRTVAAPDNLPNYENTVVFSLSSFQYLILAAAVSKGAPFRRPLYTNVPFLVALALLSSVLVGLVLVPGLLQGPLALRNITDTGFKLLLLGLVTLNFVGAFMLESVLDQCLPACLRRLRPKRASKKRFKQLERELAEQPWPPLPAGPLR
UniProt Q93084: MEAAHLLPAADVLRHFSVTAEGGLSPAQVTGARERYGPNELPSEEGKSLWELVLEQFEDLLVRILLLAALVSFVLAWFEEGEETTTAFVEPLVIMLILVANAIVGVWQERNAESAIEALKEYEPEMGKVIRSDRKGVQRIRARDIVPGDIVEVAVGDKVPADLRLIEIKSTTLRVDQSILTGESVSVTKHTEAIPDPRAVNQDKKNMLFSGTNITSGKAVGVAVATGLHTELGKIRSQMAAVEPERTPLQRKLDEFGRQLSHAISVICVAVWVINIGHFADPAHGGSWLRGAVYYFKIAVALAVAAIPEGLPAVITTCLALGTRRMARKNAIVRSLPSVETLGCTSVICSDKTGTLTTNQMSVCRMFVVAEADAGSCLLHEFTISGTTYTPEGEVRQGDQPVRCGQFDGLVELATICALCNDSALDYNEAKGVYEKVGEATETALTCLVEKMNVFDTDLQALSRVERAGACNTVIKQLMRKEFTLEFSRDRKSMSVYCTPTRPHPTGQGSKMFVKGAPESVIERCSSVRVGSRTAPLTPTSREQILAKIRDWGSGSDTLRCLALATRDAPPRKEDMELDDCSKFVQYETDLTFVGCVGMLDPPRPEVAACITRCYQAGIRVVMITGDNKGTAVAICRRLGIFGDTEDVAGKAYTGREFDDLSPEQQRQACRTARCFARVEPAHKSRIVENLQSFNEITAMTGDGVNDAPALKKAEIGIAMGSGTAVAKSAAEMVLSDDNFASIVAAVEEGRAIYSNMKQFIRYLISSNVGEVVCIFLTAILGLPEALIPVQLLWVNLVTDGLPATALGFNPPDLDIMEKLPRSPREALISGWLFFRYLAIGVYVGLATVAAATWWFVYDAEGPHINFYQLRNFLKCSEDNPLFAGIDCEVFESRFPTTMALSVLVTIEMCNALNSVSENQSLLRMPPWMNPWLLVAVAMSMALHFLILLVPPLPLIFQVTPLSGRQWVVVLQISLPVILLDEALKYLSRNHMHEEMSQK
UniProt P56381: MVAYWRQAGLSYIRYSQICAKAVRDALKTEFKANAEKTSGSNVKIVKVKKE
UniProt P54252: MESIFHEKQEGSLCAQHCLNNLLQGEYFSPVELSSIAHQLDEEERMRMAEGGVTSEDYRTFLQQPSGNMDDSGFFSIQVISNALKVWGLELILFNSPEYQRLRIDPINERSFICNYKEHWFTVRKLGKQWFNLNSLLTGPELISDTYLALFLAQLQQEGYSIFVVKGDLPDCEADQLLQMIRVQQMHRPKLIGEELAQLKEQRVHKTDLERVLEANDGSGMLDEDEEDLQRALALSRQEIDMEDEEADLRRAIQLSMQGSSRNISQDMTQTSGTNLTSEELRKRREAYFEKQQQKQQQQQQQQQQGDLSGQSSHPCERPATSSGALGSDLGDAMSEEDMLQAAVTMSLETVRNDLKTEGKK
UniProt P61769, whole entry, looked up: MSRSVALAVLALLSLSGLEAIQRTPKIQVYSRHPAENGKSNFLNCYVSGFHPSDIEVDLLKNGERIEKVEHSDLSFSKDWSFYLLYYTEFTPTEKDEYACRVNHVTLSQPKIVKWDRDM
UniProt L0R819, whole entry, looked up: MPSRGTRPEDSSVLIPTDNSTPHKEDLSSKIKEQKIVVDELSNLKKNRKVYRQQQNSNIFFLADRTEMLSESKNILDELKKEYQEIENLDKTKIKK
UniProt Q96IX5: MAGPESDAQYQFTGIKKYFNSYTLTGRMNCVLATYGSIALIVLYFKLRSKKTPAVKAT
UniProt P16615: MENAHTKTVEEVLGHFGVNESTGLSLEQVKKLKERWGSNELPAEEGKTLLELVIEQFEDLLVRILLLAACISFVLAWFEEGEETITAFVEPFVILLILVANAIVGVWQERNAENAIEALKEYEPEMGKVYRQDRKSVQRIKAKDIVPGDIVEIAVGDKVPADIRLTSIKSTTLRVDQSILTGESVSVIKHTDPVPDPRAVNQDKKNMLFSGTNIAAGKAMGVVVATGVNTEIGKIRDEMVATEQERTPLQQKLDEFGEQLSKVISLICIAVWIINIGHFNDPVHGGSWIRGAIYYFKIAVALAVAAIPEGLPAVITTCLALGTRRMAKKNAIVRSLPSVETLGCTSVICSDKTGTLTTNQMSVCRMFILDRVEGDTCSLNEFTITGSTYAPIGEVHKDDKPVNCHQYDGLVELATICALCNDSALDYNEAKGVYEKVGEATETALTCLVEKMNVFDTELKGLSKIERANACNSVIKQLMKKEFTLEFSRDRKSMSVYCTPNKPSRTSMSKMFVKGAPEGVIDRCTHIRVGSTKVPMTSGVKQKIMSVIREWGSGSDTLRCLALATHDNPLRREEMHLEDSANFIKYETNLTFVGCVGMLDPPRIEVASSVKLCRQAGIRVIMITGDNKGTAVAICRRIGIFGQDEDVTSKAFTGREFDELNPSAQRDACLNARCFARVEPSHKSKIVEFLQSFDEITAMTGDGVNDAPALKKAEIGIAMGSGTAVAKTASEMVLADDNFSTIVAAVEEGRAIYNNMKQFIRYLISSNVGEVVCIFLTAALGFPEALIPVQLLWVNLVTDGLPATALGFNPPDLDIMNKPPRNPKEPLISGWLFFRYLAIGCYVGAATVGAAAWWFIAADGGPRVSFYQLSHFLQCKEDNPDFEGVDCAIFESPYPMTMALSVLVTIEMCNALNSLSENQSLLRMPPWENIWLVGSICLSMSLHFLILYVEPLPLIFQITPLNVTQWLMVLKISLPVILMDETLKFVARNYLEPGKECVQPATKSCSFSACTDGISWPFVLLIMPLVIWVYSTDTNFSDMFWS
UniProt P20020: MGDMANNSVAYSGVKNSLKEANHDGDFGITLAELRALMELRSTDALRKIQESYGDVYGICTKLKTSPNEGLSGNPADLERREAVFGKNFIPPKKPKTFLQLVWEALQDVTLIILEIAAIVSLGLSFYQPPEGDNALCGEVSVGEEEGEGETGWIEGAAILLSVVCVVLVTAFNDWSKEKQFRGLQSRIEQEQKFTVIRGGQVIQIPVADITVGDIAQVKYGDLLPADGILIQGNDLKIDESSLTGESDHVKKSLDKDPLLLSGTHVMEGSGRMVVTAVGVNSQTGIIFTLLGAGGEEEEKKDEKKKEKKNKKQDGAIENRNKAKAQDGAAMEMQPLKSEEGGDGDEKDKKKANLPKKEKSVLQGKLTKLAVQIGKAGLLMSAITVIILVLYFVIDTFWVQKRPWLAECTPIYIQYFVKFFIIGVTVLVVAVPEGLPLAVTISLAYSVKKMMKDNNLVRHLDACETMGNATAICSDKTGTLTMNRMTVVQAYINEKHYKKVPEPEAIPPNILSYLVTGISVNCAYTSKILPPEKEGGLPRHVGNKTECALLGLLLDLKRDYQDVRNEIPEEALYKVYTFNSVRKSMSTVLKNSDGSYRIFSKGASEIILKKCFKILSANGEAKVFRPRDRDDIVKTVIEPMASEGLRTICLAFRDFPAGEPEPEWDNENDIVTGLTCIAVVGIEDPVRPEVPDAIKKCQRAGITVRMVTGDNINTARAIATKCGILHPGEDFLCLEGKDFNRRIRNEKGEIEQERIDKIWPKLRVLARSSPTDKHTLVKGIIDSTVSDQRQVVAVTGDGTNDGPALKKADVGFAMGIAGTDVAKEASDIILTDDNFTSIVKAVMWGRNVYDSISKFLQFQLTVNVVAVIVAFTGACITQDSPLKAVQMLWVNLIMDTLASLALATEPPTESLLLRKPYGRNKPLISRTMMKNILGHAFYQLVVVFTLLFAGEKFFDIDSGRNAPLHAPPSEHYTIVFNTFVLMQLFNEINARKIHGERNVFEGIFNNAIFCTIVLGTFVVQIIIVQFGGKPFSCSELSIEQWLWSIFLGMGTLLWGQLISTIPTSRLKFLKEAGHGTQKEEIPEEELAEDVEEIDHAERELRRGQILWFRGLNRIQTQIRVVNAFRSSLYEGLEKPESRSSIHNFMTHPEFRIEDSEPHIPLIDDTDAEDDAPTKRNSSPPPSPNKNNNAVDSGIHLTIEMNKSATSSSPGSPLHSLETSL
UniProt Q99700, whole entry, looked up: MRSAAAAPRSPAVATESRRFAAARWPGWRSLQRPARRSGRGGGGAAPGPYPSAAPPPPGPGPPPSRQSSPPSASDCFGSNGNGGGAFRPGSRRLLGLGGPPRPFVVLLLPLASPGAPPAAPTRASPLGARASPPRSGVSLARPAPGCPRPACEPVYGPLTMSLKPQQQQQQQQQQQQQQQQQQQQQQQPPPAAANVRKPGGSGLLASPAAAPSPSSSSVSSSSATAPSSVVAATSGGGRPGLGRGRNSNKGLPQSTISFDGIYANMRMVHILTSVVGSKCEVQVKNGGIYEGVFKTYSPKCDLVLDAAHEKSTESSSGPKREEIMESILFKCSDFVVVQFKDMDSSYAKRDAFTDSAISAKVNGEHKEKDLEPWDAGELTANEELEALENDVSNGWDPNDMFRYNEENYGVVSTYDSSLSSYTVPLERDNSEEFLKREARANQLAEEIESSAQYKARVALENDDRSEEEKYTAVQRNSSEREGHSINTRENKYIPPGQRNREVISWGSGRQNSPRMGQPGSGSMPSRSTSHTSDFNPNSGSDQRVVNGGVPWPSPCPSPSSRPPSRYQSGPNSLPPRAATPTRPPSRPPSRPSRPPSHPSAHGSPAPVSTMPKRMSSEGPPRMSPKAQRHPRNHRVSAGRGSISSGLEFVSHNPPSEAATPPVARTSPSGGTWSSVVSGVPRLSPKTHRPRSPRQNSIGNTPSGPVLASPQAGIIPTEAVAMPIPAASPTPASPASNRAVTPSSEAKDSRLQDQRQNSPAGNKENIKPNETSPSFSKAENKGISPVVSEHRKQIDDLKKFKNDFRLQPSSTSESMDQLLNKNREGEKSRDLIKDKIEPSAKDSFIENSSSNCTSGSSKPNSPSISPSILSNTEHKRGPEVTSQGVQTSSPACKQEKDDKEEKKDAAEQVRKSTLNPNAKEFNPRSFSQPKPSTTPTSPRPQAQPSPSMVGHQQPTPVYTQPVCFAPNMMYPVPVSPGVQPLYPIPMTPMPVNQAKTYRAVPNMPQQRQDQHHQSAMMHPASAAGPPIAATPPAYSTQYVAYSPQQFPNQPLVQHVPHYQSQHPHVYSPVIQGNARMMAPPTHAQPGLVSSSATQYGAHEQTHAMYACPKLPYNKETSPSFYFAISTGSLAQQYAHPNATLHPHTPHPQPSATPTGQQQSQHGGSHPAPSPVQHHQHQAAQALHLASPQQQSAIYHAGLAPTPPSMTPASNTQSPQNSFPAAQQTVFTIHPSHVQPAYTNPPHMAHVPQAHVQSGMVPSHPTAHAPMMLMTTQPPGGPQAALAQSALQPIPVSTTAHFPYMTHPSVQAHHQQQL

Tests used:
Assay in all cases: log2 fold change, soluble protein after heating vs DMSO (PISA); higher = thermal stabilisation; K562 lysate, 10 uM; active = over 0.2 and 3.5 SD of the protein, either way, in both replicates (recomputed)
[1] = compound: C1=CC=C(C=C1)[C@H](COC2=CC3=C(C=C2)NC(=O)N3)NC(=O)C4=CC=CN(C4=O)CC5=CC(=C(C=C5)F)F
Outline: (§1)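 To prepare the extract, K562 pellets were dounce-homogenised in PBS pH 7.4 with 1 mM MgCl2, giving crude material at 1 mg/mL protein. This was treated with 10 μM compound for 30 min, then heated in aliquots for 3 min over 48°C-58°C before pooling and addition of NP-40 to 0.5% at 4°C. Centrifugation at 21,000xg for 90 min left soluble protein in the supernatant, which TMTpro 16plex LC-MS/MS quantified with equalised channel sums. Results are log-two fold changes in thermal stability compared with solvent controls, from duplicates.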

[2] = compound: CC1=C(SC2=C1C(=N[C@H](C3=NN=C(N32)C)CC(=O)N)C4=CC=C(C=C4)Cl)C
Outline: as §1

[3] = compound: CC1=C2C(=CC=C1)N=C(N(C2=O)C3=CC=CC=C3C)CN4C=NC5=C(N=CN=C54)N
Outline: as §1

[4] = compound: Cc1sc2c(c1C)C(c1ccc(Cl)cc1)=N[C@@H](CC(=O)OC(C)(C)C)c1nnc(C)n1-2
Outline: as §1

[5] = compound: c1ccc([C@@H]2C[C@H]2NC2CCNCC2)cc1
Outline: as §1

Measured: log2 fold change

ATP13A2 (UniProt Q9NQ11)
inactive: [1] 0.035 | [2] 0.017 | [3] 0.005 | [4] -0.078 | [5] -0.02

ATP2A3 isoform 2 (UniProt Q93084)
inactive: [1] -0.111 | [2] 0.049 | [3] 0.01 | [4] -0.066 | [5] 0.087

ATP5F1E (UniProt P56381)
inactive: [1] 0.092 | [2] -0.068 | [3] 0.016 | [4] 0.001 | [5] -0.036

ATXN3 isoform 1 (UniProt P54252)
inactive: [1] 0.053 | [2] -0.011 | [3] 0.061 | [4] 0.002 | [5] 0.016

B2M (UniProt P61769)
inactive: [1] 0.044 | [2] -0.035 | [3] 0.012 | [4] -0.174 | [5] -0.027

ATP11C (UniProt Q8NB49)
inactive: [1] 0.033 | [2] -0.006 | [3] -0.005 | [4] -0.013 | [5] 0.003

ASDURF (UniProt L0R819)
inactive: [1] -0.013 | [2] 0.076 | [3] 0.007 | [4] -0.061 | [5] -0.014

ATG13 isoform 2 (UniProt O75143)
inactive: [1] 0.001 | [2] 0.026 | [3] 0.055 | [4] 0.045 | [5] -0.166

ATP5MD (UniProt Q96IX5)
inactive: [1] -0.035 | [2] -0.043 | [3] -0.028 | [4] 0.14 | [5] -0.072

ATP2A2 (UniProt P16615)
inactive: [1] -0.01 | [2] 0.006 | [3] 0.041 | [4] -0.038 | [5] -0.017

Taken from the listing (two entries):
ATP11C (UniProt Q8NB49)
inactive: [1] 0.033 | [2] -0.006 | [3] -0.005 | [4] -0.013 | [5] 0.003

ASDURF (UniProt L0R819)
inactive: [1] -0.013 | [2] 0.076 | [3] 0.007 | [4] -0.061 | [5] -0.014

Going on with the list:

ATP2B1 isoform 1 (UniProt P20020)
inactive: [1] -0.012 | [2] -0.015 | [3] 0.011 | [4] -0.056 | [5] -0.037

ATG9A (UniProt Q7Z3C6)
inactive: [1] 0.014 | [2] 0.029 | [3] 0.028 | [4] -0.098 | [5] 0.022

ATXN2 (UniProt Q99700)
inactive: [1] 0.013 | [2] 0.016 | [3] 0.075 | [4] -0.02 | [5] -0.021

ATP9B (UniProt O43861)
inactive: [1] 0.109 | [2] -0.028 | [3] 0.015 | [4] -0.019 | [5] -0.079

ATP1A1 (UniProt P05023)
inactive: [1] 0.029 | [2] 0.001 | [3] -0.005 | [4] -0.015 | [5] -0.018

ATXN2L (UniProt Q8WWM7)
inactive: [1] -0.032 | [2] 0.035 | [3] 0.095 | [4] 0 | [5] 0.003
